The data set relates to normal C57BL/6 mice. As to the kind of experiment: Intra-third ventricle injection of TGF-β1, GTT, ITT, food intake and body weight. The data set is classed as in vivo. As to conditions: 24 hours after injection, same protocol. The procedure:
Brain TGF-β excess impairs glucose tolerance: To study the metabolic effects of brain TGF-β excess, a pharmacological approach was first used by which TGF-β was delivered into the hypothalamic third ventricle of normal C57BL/6 mice via pre-implanted cannula. To optimize the dosage, different doses of TGF-β1 (0, 0.5, 1.0, and 4.0 ng) were injected, and TGF-β1 concentrations measured in the CSF at various time points post-injection. […] Based on this condition, overnight-fasted mice were given intra-third ventricle injections of TGF-β1 in these doses, one injection at night after food was removed, and the second injection in the following morning at 4 hours prior to glucose tolerance test (GTT). […] In sum, a pharmacological induction of brain TGF-β excess can acutely cause pre-diabetic changes including glucose intolerance and insulin resistance.
Animals. Tgfb1^lox/lox mice, Tgfbr2^lox/lox mice, Tgfb1^+/− mice, GFAP-Cre mice, and T1r4^−/− mice on C57BL/6 were obtained from Jackson (32,56-59) and continued to be maintained on C57BL/6. CMV-lox-stop-lox-Tgfb1 mice(30) obtained from Jackson were backcrossed into C57BL/6. POMC-Cre mice maintained on C57BL/6 were used in our previous research (20,60). […] Food intake and body weight of mice were measured using a laboratory scale. […] Blood glucose levels during GTT and ITT were measured with LifeScan® blood glucose monitoring system. […]

This passage reports body weight and food intake results from patent US20170114128A1, “USE OF TGF-BETA ANTAGONISTS OF TREAT TYPE-2 DIABETES” (ALBERT EINSTEIN COLLEGE OF MEDICINE, INC., priority 2014, published 2017).

For the substance “TGF-β1: transforming growth factor-β1 (Sigma), cytokine dissolved in artificial cerebrospinal fluid for third-ventricle injection”, the body weight entry is given as “did not affect” and the food intake result is “did not affect”.
